In publication PMC12375501 one finds binding data, which are given here for one molecule.

These are yes or no findings as the source states them, for the method shown. In cells and extracts the contact can be indirect. Some entries that bind do so weakly or less than the wild type. Sequences can lack the tags named with a protein.

This test has as its target T1, MYC-tagged RNASEH2B (human) (UniProt Q5TBB1).
T1 sequence: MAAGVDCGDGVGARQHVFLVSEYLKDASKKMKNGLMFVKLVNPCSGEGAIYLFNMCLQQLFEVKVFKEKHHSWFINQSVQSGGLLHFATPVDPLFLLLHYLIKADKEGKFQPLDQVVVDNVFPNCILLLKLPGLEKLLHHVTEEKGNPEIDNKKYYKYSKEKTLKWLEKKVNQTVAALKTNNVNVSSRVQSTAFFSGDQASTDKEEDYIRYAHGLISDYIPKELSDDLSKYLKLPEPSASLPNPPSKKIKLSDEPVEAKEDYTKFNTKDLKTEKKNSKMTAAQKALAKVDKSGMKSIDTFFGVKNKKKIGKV
As to the kind of experiment: co-IP; ChromoTek Myc-trap magnetic agarose (anti-Myc-tag nanobody) precipitates ectopic MYC-RH2B 48 h after doxycycline induction; 1 mg protein per condition, 1 h; buffers with DNase I, 2.5 mM MgCl2, protease and phosphatase inhibitors; immunoblot for RH2A, RH2B, RH2C.

B1: RNASEH2C (endogenous) (protein, UniProt Q8TDP1 1-164)
chain: MESGDEAAIERHRVHLRSATLRDAVPATLHLLPCEVAVDGPAPVGRFFTPAIRQGPEGLEVSFRGRCLRGEEVAVPPGLVGYVMVTEEKKVSMGKPDPLRDSGTDDQEEEPLERDFDRFIGATANFSRFTLWGLETIPGPDAKVRGALTWPSLAAAIHAQVPED
For the molecule B1, the binding entry is listed as “binds”.
